Assay results as given in the supplement of paper PMC10849652.
The list shows a part of the results.

The chains behind the UniProt entries cited, without tags or fusion partners. Where a name states a change or a piece, a line headed by the entry shows the natural chain unless it says otherwise.
UniProt Q9Y3E1: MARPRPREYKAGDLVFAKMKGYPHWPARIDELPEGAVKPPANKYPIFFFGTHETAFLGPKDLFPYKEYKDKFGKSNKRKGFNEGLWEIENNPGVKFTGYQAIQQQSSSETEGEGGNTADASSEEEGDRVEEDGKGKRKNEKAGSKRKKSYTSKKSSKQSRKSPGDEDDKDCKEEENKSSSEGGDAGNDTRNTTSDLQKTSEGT
UniProt Q9H6D7: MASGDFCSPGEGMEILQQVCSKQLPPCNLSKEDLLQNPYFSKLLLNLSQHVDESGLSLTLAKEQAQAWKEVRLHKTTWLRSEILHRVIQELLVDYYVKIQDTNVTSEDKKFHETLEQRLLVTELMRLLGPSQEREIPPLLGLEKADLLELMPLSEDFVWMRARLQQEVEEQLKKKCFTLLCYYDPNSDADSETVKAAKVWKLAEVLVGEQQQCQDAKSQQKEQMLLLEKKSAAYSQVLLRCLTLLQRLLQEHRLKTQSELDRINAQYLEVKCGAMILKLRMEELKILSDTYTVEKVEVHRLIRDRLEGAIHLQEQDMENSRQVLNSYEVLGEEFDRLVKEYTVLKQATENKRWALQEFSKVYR
UniProt P06396, whole entry, looked up: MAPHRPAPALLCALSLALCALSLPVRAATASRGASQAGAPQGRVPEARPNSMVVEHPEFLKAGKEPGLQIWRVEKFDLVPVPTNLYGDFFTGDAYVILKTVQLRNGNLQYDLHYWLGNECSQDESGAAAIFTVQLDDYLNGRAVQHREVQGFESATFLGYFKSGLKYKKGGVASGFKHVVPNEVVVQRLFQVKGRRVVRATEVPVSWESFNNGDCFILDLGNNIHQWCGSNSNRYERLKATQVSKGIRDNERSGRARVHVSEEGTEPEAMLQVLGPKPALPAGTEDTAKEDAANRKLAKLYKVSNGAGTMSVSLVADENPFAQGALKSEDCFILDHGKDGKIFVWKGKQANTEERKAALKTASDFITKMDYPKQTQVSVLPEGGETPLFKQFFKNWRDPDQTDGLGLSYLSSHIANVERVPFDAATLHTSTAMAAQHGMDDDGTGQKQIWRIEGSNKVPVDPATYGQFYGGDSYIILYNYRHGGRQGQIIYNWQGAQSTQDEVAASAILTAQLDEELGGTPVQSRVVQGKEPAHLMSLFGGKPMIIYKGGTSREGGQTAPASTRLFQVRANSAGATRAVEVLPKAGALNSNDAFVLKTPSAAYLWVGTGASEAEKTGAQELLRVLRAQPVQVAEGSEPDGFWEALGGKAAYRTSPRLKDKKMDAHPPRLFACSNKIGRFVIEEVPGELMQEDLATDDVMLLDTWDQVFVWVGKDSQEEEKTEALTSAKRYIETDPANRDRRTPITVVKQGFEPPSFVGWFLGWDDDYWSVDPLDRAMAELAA
UniProt Q9BQS7: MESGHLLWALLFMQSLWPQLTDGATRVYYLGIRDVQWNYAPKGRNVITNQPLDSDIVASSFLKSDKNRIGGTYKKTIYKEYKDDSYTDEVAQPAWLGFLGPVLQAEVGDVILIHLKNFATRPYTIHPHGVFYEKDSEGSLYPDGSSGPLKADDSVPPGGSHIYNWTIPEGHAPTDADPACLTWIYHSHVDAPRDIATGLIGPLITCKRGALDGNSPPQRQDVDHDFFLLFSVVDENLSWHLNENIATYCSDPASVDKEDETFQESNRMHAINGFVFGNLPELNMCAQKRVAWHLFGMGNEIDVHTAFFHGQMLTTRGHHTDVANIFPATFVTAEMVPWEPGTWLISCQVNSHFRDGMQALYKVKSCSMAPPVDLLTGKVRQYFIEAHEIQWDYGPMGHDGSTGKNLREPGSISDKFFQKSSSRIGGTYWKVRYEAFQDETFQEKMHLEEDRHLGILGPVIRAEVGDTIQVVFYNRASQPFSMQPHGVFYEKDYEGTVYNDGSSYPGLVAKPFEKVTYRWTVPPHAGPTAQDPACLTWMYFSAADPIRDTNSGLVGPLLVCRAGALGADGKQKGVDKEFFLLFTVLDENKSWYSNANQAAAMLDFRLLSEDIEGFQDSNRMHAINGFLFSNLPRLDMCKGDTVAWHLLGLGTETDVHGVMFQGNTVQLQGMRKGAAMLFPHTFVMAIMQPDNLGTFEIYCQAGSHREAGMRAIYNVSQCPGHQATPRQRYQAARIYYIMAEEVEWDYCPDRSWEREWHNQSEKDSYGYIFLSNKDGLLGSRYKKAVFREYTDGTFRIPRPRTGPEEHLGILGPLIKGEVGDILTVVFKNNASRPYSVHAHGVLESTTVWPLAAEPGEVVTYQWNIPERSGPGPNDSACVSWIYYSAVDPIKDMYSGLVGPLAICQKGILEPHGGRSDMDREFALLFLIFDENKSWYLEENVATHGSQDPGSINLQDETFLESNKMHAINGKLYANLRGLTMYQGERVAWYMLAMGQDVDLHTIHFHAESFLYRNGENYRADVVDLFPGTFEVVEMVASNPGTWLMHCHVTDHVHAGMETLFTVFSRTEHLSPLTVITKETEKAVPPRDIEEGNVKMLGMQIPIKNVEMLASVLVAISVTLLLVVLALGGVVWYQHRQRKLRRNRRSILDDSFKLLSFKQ
UniProt Q9NRV9: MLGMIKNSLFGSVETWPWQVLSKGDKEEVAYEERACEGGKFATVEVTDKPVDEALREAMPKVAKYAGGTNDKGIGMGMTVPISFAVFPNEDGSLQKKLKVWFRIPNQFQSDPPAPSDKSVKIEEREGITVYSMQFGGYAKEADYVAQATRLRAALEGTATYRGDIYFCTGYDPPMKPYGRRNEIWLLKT
UniProt P69891: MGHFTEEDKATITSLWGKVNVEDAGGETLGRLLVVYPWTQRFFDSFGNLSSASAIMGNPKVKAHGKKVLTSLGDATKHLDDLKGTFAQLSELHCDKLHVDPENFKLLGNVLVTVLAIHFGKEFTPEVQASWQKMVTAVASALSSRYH
UniProt O95479: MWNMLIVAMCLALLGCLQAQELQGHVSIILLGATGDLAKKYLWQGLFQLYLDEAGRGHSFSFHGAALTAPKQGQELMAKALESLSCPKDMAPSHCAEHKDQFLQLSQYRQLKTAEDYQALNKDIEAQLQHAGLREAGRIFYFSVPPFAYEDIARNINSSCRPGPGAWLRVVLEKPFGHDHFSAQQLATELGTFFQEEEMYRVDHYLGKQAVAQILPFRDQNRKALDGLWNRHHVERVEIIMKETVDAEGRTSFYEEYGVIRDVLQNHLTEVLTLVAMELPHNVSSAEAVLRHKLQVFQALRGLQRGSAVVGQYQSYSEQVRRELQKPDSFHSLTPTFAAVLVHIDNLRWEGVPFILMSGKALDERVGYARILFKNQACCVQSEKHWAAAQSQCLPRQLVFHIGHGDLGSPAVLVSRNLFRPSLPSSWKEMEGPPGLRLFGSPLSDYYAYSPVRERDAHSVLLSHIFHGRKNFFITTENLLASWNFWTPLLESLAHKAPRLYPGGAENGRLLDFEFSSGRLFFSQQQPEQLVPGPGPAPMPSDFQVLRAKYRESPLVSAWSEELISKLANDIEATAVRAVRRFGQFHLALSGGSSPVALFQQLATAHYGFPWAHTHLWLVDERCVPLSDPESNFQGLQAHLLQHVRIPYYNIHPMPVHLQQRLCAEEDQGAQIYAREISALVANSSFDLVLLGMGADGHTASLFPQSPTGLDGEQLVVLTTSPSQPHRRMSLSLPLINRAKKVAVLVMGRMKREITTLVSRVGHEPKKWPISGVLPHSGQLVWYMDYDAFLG
UniProt Q9BXW7: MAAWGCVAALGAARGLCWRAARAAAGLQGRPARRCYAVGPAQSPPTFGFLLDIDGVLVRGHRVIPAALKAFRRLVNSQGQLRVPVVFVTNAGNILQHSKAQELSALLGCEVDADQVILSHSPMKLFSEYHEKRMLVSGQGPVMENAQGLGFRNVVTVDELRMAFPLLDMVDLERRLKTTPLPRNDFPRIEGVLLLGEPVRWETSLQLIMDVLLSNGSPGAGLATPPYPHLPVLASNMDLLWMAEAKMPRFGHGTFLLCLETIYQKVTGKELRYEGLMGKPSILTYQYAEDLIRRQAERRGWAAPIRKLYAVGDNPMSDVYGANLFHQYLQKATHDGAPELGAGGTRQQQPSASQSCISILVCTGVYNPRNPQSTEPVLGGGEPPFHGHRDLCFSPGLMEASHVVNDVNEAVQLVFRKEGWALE
UniProt P16401, whole entry, looked up: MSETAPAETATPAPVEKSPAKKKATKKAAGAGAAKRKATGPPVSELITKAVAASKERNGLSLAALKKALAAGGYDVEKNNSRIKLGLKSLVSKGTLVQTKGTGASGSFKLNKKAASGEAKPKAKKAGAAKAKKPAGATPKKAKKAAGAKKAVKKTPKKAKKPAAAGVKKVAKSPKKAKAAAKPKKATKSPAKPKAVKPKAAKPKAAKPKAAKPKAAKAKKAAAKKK
UniProt P49590: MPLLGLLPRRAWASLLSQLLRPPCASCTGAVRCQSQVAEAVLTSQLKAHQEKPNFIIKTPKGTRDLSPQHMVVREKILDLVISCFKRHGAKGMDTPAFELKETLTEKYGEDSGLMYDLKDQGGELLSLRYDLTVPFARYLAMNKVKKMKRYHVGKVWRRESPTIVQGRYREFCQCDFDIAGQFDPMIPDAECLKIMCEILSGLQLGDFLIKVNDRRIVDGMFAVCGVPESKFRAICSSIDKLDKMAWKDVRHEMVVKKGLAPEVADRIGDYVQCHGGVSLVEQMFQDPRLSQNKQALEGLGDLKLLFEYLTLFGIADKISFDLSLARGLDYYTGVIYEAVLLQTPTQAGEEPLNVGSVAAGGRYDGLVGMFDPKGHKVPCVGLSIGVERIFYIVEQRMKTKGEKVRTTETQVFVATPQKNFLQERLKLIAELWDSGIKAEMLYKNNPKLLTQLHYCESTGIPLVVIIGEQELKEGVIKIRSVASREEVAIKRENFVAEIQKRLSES
UniProt Q8IYD1, whole entry, looked up: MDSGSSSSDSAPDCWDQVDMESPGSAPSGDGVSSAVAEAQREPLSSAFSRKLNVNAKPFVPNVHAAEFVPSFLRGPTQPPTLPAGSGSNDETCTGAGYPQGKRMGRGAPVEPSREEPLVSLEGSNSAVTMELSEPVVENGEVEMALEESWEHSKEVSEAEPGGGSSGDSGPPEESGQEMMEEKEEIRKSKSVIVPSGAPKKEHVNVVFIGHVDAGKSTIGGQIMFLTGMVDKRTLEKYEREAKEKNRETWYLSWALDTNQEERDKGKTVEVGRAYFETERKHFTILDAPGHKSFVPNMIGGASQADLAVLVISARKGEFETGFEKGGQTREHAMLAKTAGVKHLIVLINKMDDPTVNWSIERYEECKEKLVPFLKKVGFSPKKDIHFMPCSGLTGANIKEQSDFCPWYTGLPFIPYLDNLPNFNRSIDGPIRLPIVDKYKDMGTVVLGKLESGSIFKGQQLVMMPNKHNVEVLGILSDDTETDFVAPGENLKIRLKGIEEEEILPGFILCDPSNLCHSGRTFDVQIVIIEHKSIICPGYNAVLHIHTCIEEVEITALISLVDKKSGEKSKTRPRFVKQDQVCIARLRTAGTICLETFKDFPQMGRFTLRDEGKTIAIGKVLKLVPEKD
UniProt P51858: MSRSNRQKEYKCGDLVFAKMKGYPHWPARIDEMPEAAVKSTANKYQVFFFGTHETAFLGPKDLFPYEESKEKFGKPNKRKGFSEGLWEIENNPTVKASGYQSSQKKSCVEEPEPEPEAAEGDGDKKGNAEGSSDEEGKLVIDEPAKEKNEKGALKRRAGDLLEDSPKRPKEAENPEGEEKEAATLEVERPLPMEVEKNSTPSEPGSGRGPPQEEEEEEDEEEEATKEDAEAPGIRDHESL
UniProt O14929: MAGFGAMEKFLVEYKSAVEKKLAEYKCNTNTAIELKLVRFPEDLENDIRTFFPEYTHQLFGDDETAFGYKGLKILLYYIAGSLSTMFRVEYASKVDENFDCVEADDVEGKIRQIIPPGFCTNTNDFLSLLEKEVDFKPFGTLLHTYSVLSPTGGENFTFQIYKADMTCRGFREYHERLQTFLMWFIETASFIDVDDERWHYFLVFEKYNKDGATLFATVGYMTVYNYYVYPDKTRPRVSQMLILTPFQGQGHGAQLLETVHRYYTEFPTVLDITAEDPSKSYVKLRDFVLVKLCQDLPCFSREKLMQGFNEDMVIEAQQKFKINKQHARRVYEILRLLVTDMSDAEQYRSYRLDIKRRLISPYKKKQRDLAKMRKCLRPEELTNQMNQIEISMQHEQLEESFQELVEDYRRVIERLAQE
UniProt P04921: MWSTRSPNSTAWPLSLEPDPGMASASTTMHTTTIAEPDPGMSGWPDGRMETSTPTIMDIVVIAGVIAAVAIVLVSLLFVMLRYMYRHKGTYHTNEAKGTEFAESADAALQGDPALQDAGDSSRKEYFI
UniProt Q13888: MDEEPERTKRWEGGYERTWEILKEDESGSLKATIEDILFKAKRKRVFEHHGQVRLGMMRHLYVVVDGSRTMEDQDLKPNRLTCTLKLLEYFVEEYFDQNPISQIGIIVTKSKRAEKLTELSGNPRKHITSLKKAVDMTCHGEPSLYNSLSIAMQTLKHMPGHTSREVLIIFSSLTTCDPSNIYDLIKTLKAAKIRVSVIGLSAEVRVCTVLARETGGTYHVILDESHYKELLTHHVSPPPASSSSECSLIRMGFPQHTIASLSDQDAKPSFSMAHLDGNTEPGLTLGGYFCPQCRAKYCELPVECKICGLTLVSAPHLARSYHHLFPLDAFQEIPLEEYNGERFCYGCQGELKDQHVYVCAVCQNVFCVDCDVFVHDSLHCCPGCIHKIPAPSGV

Legend:
Test in all cases: log2 fold change, soluble protein after heating vs DMSO (PISA); higher = thermal stabilisation; K562 cells, 10 uM, 30 min; active = over 0.2 and 3.5 SD of the protein, either way, in both replicates (recomputed)
[1] = compound: NC(=O)Nc1cc(-c2cccc(F)c2)sc1C(=O)N[C@H]1CCCNC1
In short: (§1)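 Aliquots of K562 cells (2×10^6 cells/mL) treated with 10 μM compound for 30 min were heated for 3 min over 48°C-58°C. After pooling and extraction in PBS with 0.5% NP-40 at 4°C, soluble protein from a 21,000xg, 90 min spin was quantified by TMTpro 16plex LC-MS/MS with channel sums equalised. Thermal stability is expressed against control samples, from duplicates, as a log2 fold change.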

[2] = compound: NC(=O)c1cnc(N[C@@H]2CCCC[C@@H]2N)nc1Nc1cccc(-n2nccn2)c1
In short: as §1

[3] = compound: NC1(c2ccc(-c3nc4ccn5c(=O)[nH]nc5c4cc3-c3ccccc3)cc2)CCC1
In short: as §1

[4] = compound: NCC(=O)Nc1ccc(-n2nc(C(F)(F)F)cc2-c2ccc3c(ccc4ccccc43)c2)cc1
In short: as §1

[5] = compound: Nc1ccccc1NC(=O)c1ccc(CNC(=O)OCc2cccnc2)cc1 [entinostat]
In short: as §1

[6] = compound: O=C(CCCCCCC(=O)Nc1ccccc1)NO [vorinostat]
In short: as §1

[7] = compound: O=C(CCCCCCNC(=O)c1cnc(N(c2ccccc2)c2ccccc2Cl)nc1)NO [citarinostat]
In short: as §1

[8] = compound: O=C(O)c1ccc2c(c1)nc(Nc1cccc(Cl)c1)c1ccncc12 [silmitasertib]
In short: as §1

[9] = compound: O=C1NC(=O)C(c2cnc3ccccn23)=C1c1cn2c3c(cc(F)cc13)CN(C(=O)N1CCCCC1)CC2
In short: as §1

[10] = compound: c1cc(OCCN2CCCCC2)cc(-c2n[nH]c3ccc(-c4nnc[nH]4)cc23)c1
In short: as §1

Measured: log2 fold change

HELB (UniProt Q8NG08)
inactive: [1] -0.079 | [2] 0.009 | [3] -0.032 | [4] 0.058 | [5] 0.013 | [6] -0.073 | [7] 0.063 | [8] 0.001 | [9] -0.024 | [10] 0.058

HDGFL3 (UniProt Q9Y3E1)
inactive: [1] 0.003 | [2] -0.035 | [3] 0.026 | [4] -0.012 | [5] -0.018 | [6] -0.116 | [7] -0.041 | [8] 0.016 | [9] -0.078 | [10] -0.025

HERC1 (UniProt Q15751)
inactive: [1] -0.017 | [2] 0.012 | [3] -0.076 | [4] -0.015 | [5] -0.008 | [6] -0.003 | [7] 0.03 | [8] 0.067 | [9] 0.017 | [10] -0.053

HAUS4 (UniProt Q9H6D7)
inactive: [1] 0.067 | [2] -0.165 | [3] 0.229 | [4] -0.089 | [5] 0.12 | [6] 0.01 | [7] -0.106 | [8] 0.095 | [9] 0.088 | [10] -0.08

GSN (UniProt P06396)
inactive: [1] 0.018 | [2] -0.024 | [3] -0.034 | [4] -0.029 | [5] -0.025 | [6] 0.125 | [7] -0.052 | [8] 0.126 | [9] -0.011 | [10] 0.104

HBG2 (UniProt P69892)
inactive: [1] 0.119 | [2] 0.125 | [3] 0.012 | [4] 0.1 | [5] 0.094 | [6] 0.01 | [7] 0.091 | [8] -0.068 | [9] 0.008 | [10] 0.049

HDGFL2 (UniProt Q7Z4V5)
inactive: [2] -0.05 | [3] -0.022 | [4] -0.052 | [5] -0.139 | [6] 0.024 | [7] -0.032 | [8] 0.033 | [9] -0.093 | [10] -0.018
active: [1] -0.273

GSTM4 (UniProt Q03013)
inactive: [1] -0.071 | [2] -0.046 | [3] -0.121 | [4] 0.023 | [5] -0.068 | [6] -0.013 | [7] -0.079 | [8] 0.137 | [9] 0.151 | [10] 0.199

Retrieved one by one from the list above, two records:
HAUS4 (UniProt Q9H6D7)
inactive: [1] 0.067 | [2] -0.165 | [3] 0.229 | [4] -0.089 | [5] 0.12 | [6] 0.01 | [7] -0.106 | [8] 0.095 | [9] 0.088 | [10] -0.08

GSN (UniProt P06396)
inactive: [1] 0.018 | [2] -0.024 | [3] -0.034 | [4] -0.029 | [5] -0.025 | [6] 0.125 | [7] -0.052 | [8] 0.126 | [9] -0.011 | [10] 0.104

Continuation:

HAX1 (UniProt O00165)
inactive: [1] -0.106 | [2] -0.165 | [3] -0.174 | [4] -0.06 | [5] 0.021 | [6] 0.115 | [7] -0.019 | [8] -0.032 | [9] 0.036 | [10] -0.074

HBZ (UniProt P02008)
inactive: [1] 0.03 | [2] -0.042 | [3] 0 | [4] 0.026 | [5] 0.059 | [6] -0.022 | [7] 0.027 | [8] -0.019 | [9] -0.055 | [10] -0.018

HEPH isoform 3 (UniProt Q9BQS7)
inactive: [1] -0.03 | [2] 0.022 | [3] -0.1 | [4] 0.044 | [5] -0.011 | [6] 0.033 | [7] 0.112 | [8] 0.118 | [9] 0.04 | [10] -0.109

HEBP1 (UniProt Q9NRV9)
inactive: [1] 0.383 | [2] 0.081 | [3] 0.022 | [4] 0.032 | [5] 0.069 | [6] -0.098 | [7] -0.101 | [8] 0.005 | [9] -0.15 | [10] 0.107

HBG1 (UniProt P69891)
inactive: [1] 0.008 | [2] 0.013 | [3] 0.036 | [4] 0.027 | [5] 0.076 | [6] -0.044 | [7] 0.023 | [8] -0.024 | [9] -0.065 | [10] -0.002

H6PD (UniProt O95479)
inactive: [1] 0.103 | [2] 0.001 | [3] 0.025 | [4] 0.23 | [5] 0.014 | [6] -0.077 | [7] -0.062 | [8] 0 | [9] 0.037 | [10] 0.002

GSS (UniProt P48637)
inactive: [1] 0.016 | [2] -0.014 | [3] 0.012 | [4] 0.014 | [5] -0.025 | [6] -0.016 | [7] 0.005 | [8] -0.018 | [9] -0.035 | [10] -0.002

HDHD5 (UniProt Q9BXW7)
inactive: [1] 0.06 | [2] -0.095 | [3] -0.113 | [4] -0.031 | [5] 0.095 | [6] 0.08 | [7] 0.158 | [8] -0.144 | [9] -0.023 | [10] 0.083

HECTD1 (UniProt Q9ULT8)
inactive: [1] -0.036 | [2] -0.087 | [3] -0.017 | [4] -0.01 | [5] 0.042 | [6] 0.06 | [7] 0.123 | [8] 0.075 | [9] -0.027 | [10] -0.17

GTF2F1 (UniProt P35269)
inactive: [1] -0.059 | [2] -0.012 | [3] 0.004 | [4] 0.003 | [5] -0.022 | [6] -0.025 | [7] -0.017 | [8] -0.034 | [9] -0.073 | [10] -0.033

GUK1 isoform 2 (UniProt Q16774)
inactive: [1] -0.126 | [2] -0.029 | [3] -0.059 | [4] -0.064 | [5] 0.065 | [6] -0.002 | [7] 0.031 | [8] 0.044 | [9] -0.094 | [10] 0.122

HAGH (UniProt Q16775)
inactive: [1] -0.009 | [2] 0.002 | [3] -0.016 | [4] 0.011 | [5] -0.081 | [6] -0.047 | [7] 0.019 | [8] -0.06 | [9] 0.009 | [10] -0.05

GTF2H4 (UniProt Q92759)
inactive: [1] -0.061 | [2] -0.142 | [3] -0.069 | [4] -0.15 | [5] -0.062 | [6] -0.182 | [7] -0.517 | [8] 0.231 | [9] 0.203 | [10] 0.035

H1-5 (UniProt P16401)
inactive: [1] 0.136 | [2] 0.12 | [3] 0.254 | [4] 0.162 | [5] 0.013 | [6] 0.108 | [7] -0.109 | [8] 0.069 | [9] 0.174 | [10] -0.152

HARS2 (UniProt P49590)
inactive: [1] -0.05 | [2] 0.069 | [3] -0.014 | [4] -0.015 | [5] -0.035 | [6] -0.048 | [7] -0.035 | [8] 0.055 | [9] -0.017 | [10] -0.059

GSPT2 (UniProt Q8IYD1)
inactive: [1] -0.026 | [2] -0.028 | [3] -0.208 | [4] -0.093 | [5] -0.04 | [6] 0.272 | [7] -0.116 | [8] 0.135 | [9] -0.204 | [10] 0.046

HBA1 (UniProt P69905)
inactive: [1] 0.016 | [2] 0.032 | [3] 0.003 | [4] 0.103 | [5] 0.059 | [6] -0.031 | [7] 0.007 | [8] -0.036 | [9] -0.037 | [10] 0.012

HEXIM1 (UniProt O94992)
inactive: [1] -0.041 | [2] -0.123 | [3] 0.058 | [4] 0.09 | [5] -0.042 | [6] -0.071 | [7] 0 | [8] -0.048 | [9] 0.062 | [10] -0.051

HDGF (UniProt P51858)
inactive: [1] -0.085 | [2] -0.041 | [3] -0.056 | [4] -0.014 | [5] -0.013 | [6] 0.015 | [7] 0.073 | [8] -0.02 | [9] -0.107 | [10] 0.007

HAT1 (UniProt O14929)
inactive: [1] 0.002 | [2] 0.006 | [3] -0.076 | [4] 0.01 | [5] 0.053 | [6] 0.001 | [7] 0.071 | [8] 0.052 | [9] -0.055 | [10] -0.016

GYPC (UniProt P04921)
inactive: [1] -0.228 | [2] -0.011 | [3] 0.166 | [4] 0.057 | [5] -0.039 | [6] 0.071 | [7] 0.021 | [8] -0.069 | [9] -0.192 | [10] -0.108

GTF2H2 (UniProt Q13888)
inactive: [1] -0.059 | [2] 0.002 | [3] 0.034 | [4] 0.019 | [5] -0.016 | [6] -0.054 | [7] 0.007 | [8] 0.016 | [9] -0.027 | [10] -0.044
